Seven molecules from doi:10.1101/2025.09.17.676845 can be followed below.

Chains of the proteins cited; added tags and fusions are not shown.
UniProt Q13283: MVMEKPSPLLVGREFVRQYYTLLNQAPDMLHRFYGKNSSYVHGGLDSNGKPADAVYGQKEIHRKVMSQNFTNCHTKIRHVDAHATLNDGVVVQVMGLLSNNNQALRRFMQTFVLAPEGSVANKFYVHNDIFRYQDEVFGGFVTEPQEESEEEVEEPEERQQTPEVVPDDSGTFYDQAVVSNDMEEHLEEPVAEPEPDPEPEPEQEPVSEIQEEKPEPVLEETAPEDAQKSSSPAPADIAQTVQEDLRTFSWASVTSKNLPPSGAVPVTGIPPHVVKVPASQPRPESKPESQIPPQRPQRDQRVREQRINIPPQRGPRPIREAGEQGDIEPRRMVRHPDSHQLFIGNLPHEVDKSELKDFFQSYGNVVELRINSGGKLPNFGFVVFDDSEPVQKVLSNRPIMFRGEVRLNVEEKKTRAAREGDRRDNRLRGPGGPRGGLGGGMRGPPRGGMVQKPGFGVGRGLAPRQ
UniProt Q9Y520: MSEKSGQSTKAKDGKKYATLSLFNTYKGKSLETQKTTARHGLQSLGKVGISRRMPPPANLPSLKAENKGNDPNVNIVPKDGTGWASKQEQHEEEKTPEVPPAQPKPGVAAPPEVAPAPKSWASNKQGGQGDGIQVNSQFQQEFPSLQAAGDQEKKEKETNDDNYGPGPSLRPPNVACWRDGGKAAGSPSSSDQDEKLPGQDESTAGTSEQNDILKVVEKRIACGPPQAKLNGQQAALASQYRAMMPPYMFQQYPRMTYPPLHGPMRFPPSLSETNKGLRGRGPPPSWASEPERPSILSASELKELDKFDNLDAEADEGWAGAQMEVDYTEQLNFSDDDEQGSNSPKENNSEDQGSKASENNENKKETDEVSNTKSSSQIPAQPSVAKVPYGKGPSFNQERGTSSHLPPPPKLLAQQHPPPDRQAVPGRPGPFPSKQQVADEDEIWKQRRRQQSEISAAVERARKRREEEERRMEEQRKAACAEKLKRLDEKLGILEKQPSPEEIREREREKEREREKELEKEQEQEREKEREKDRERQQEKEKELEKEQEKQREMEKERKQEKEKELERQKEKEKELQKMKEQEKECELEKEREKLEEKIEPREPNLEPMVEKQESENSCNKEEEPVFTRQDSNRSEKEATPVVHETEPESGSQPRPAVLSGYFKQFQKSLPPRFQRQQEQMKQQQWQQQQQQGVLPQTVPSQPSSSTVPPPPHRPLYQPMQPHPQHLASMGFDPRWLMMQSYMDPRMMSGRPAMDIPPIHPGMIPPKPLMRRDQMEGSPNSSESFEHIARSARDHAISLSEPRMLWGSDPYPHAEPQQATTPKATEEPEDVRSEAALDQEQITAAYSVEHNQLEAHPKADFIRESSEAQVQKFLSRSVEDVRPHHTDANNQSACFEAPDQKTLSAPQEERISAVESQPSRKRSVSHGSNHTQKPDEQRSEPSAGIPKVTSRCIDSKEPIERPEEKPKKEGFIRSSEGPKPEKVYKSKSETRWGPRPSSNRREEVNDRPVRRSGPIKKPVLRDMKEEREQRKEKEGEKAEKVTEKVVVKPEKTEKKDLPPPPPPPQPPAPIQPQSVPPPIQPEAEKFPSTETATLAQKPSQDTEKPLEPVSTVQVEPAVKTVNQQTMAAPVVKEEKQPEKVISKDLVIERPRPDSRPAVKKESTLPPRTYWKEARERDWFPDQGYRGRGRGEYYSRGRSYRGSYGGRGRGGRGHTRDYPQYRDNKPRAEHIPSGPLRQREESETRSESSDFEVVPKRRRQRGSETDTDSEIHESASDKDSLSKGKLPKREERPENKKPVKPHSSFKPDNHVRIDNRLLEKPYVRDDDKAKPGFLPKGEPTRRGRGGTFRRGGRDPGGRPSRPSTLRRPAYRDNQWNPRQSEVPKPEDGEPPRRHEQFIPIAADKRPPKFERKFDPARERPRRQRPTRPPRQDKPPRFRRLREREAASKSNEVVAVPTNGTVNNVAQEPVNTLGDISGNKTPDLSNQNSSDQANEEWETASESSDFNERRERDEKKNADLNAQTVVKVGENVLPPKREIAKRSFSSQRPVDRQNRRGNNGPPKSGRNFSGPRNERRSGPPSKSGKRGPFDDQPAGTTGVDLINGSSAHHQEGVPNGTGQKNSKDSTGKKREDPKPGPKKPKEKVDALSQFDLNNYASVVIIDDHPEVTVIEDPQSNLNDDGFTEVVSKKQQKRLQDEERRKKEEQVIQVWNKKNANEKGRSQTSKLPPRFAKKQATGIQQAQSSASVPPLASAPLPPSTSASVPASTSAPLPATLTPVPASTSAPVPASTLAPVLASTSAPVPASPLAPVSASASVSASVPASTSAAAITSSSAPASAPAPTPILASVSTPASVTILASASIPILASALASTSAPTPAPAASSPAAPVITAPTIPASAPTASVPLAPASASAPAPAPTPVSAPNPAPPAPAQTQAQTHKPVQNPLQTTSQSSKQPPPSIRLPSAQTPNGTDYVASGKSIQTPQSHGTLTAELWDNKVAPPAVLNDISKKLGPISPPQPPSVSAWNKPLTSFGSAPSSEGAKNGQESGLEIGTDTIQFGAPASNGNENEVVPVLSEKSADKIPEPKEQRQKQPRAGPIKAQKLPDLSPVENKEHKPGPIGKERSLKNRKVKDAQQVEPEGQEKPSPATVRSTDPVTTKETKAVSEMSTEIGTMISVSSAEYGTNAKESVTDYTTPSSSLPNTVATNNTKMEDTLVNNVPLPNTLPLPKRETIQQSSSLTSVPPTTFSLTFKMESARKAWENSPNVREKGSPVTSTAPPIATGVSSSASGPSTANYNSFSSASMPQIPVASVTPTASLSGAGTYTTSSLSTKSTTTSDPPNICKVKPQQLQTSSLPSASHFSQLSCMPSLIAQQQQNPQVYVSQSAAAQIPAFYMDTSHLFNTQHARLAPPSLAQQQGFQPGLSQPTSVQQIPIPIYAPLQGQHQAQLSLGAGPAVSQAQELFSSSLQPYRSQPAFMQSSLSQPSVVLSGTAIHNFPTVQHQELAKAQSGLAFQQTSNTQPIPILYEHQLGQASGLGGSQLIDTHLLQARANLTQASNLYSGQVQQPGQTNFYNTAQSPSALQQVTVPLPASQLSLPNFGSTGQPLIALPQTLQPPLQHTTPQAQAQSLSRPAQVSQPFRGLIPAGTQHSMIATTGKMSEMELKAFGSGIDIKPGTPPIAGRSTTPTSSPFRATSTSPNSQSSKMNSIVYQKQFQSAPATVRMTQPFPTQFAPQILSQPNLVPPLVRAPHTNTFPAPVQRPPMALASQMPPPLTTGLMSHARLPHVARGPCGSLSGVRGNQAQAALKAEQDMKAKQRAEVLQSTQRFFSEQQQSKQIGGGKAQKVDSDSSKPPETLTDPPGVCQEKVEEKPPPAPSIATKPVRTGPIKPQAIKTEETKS
UniProt P60228: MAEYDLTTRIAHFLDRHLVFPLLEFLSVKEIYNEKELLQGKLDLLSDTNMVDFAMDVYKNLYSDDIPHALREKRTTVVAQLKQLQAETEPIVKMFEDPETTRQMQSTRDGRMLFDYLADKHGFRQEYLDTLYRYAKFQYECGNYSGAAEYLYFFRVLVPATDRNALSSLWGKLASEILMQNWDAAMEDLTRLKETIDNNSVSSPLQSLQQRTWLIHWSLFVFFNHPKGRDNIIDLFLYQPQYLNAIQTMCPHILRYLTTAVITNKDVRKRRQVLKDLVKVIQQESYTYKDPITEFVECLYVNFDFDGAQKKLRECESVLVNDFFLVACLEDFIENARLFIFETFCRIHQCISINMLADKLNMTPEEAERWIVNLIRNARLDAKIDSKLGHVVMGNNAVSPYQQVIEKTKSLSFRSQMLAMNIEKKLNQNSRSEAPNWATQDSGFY
UniProt Q14157: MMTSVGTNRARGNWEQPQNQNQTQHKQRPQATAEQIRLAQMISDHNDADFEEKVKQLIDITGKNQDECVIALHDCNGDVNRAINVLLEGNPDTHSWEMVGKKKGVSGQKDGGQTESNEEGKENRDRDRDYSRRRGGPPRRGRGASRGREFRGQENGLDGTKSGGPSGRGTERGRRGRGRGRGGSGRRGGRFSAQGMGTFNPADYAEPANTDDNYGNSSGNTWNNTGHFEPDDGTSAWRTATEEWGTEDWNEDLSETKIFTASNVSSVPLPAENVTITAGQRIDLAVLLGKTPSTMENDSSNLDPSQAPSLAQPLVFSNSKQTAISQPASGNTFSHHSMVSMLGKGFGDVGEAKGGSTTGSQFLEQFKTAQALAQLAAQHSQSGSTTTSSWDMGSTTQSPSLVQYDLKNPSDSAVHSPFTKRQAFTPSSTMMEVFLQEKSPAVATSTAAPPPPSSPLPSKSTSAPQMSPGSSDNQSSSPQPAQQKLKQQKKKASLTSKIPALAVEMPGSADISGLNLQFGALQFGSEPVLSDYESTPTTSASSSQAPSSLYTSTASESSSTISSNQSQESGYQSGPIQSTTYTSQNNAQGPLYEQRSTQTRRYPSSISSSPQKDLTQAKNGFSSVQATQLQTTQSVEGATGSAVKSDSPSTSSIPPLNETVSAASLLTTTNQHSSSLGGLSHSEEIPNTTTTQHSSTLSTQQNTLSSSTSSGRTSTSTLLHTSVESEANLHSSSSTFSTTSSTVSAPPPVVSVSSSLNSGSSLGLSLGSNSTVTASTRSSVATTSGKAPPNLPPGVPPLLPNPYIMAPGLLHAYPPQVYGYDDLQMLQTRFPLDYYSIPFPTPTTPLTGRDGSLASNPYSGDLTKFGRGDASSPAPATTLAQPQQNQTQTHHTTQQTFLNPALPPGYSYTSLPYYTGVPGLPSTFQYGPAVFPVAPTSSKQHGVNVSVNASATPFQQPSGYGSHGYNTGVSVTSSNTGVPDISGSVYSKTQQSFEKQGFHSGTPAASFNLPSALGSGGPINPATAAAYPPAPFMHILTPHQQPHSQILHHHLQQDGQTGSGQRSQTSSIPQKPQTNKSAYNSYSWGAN
UniProt O75821: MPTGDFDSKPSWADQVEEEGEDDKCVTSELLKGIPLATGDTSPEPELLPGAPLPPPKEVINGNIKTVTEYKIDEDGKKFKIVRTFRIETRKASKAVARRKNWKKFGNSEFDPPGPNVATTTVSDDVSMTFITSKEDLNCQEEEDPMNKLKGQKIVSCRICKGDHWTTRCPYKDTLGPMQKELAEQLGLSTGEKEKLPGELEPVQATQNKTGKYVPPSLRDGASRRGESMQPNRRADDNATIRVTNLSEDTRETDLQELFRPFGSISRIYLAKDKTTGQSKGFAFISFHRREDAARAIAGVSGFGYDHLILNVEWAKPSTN

Results are given in words; binding and its absence hold for the method and conditions named. Binding seen in cells or lysates may run through a third protein. Here binding means that the protein was enriched with, or labelled near, the bait; the list need not be complete.

Sequences and labels used below:
B1: ATXN2L (protein, UniProt Q8WWM7 1-1075)
chain: MLKPQPLQQPSQPQQPPPTQQAVARRPPGGTSPPNGGLPGPLATSAAPPGPPAAASPCLGPVAAAGSGLRRGAEGILAPQPPPPQQHQERPGAAAIGSARGQSTGKGPPQSPVFEGVYNNSRMLHFLTAVVGSTCDVKVKNGTTYEGIFKTLSSKFELAVDAVHRKASEPAGGPRREDIVDTMVFKPSDVMLVHFRNVDFNYATKDKFTDSAIAMNSKVNGEHKEKVLQRWEGGDSNSDDYDLESDMSNGWDPNEMFKFNEENYGVKTTYDSSLSSYTVPLEKDNSEEFRQRELRAAQLAREIESSPQYRLRIAMENDDGRTEEEKHSAVQRQGSGRESPSLASREGKYIPLPQRVREGPRGGVRCSSSRGGRPGLSSLPPRGPHHLDNSSPGPGSEARGINGGPSRMSPKAQRPLRGAKTLSSPSNRPSGETSVPPPPAVGRMYPPRSPKSAAPAPISASCPEPPIGSAVPTSSASIPVTSSVSDPGVGSISPASPKISLAPTDVKELSTKEPGRTLEPQELARIAGKVPGLQNEQKRFQLEELRKFGAQFKLQPSSSPENSLDPFPPRILKEEPKGKEKEVDGLLTSEPMGSPVSSKTESVSDKEDKPPLAPSGGTEGPEQPPPPCPSQTGSPPVGLIKGEDKDEGPVAEQVKKSTLNPNAKEFNPTKPLLSVNKSTSTPTSPGPRTHSTPSIPVLTAGQSGLYSPQYISYIPQIHMGPAVQAPQMYPYPVSNSVPGQQGKYRGAKGSLPPQRSDQHQPASAPPMMQAAAAAGPPLVAATPYSSYIPYNPQQFPGQPAMMQPMAHYPSQPVFAPMLQSNPRMLTSGSHPQAIVSSSTPQYPSAEQPTPQALYATVHQSYPHHATQLHAHQPQPATTPTGSQPQSQHAAPSPVQHQAGQAPHLGSGQPQQNLYHPGALTGTPPSLPPGPSAQSPQSSFPQPAAVYAIHHQQLPHGFTNMAHVTQAHVQTGITAAPPPHPGAPHPPQVMLLHPPQSHGGPPQGAVPQSGVPALSASTPSPYPYIGHPQGEQPGQAPGFPGGADDRIREFSLAGGIWHGRAEGLQVGQDARVLGGE
B2: TIAL1 (protein, UniProt Q01085 1-375)
chain: MMEDDGQPRTLYVGNLSRDVTEVLILQLFSQIGPCKSCKMITEHTSNDPYCFVEFYEHRDAAAALAAMNGRKILGKEVKVNWATTPSSQKKDTSNHFHVFVGDLSPEITTEDIKSAFAPFGKISDARVVKDMATGKSKGYGFVSFYNKLDAENAIVHMGGQWLGGRQIRTNWATRKPPAPKSTQENNTKQLRFEDVVNQSSPKNCTVYCGGIASGLTDQLMRQTFSPFGQIMEIRVFPEKGYSFVRFSTHESAAHAIVSVNGTTIEGHVVKCYWGKESPDMTKNFQQVDYSQWGQWSQVYGNPQQYGQYMANGWQVPPYGVYGQPWNQQGFGVDQSPSAAWMGGFGAQPPQGQAPPPVIPPPNQAGYGMASYQTQ
B3: NUFIP2 (protein, UniProt Q7Z417 1-695)
chain: MEEKPGQPQPQHHHSHHHPHHHPQQQQQQPHHHHHYYFYNHSHNHHHHHHHQQPHQYLQHGAEGSPKAQPKPLKHEQKHTLQQHQETPKKKTGYGELNGNAGEREISLKNLSSDEATNPISRVLNGNQQVVDTSLKQTVKANTFGKAGIKTKNFIQKNSMDKKNGKSYENKSGENQSVDKSDTIPIPNGVVTNNSGYITNGYMGKGADNDGSGSESGYTTPKKRKARRNSAKGCENLNIVQDKIMQQETSVPTLKQGLETFKPDYSEQKGNRVDGSKPIWKYETGPGGTSRGKPAVGDMLRKSSDSKPGVSSKKFDDRPKGKHASAVASKEDSWTLFKPPPVFPVDNSSAKIVPKISYASKVKENLNKTIQNSSVSPTSSSSSSSSTGETQTQSSSRLSQVPMSALKSVTSANFSNGPVLAGTDGNVYPPGGQPLLTTAANTLTPISSGTDSVLQDMSLTSAAVEQIKTSLFIYPSNMQTMLLSTAQVDLPSQTDQQNLGDIFQNQWGLSFINEPSAGPETVTGKSSEHKVMEVTFQGEYPATLVSQGAEIIPSGTEHPVFPKAYELEKRTSPQVLGSILKSGTTSESGALSLEPSHIGDLQKADTSSQGALVFLSKDYEIESQNPLASPTNTLLGSAKEQRYQRGLERNDSWGSFDLRAAIVYHTKEMESIWNLQKQDPKRIITYNEAMDSPDQ

In this experiment the target is APEX2-tagged WT G3BP1 (human) (UniProt Q13283). The experiment in a line: proximity labelling.
Take PRRC2C (from UniProt Q9Y520 1-2896): the binding entry is recorded as “binds”.
Regarding EIF3E (from UniProt P60228 1-445), the binding entry is “binds”.
The value for UBAP2L (from UniProt Q14157 1-1087) was “binds”.
For the molecule EIF3G (from UniProt O75821 1-320), the binding entry was “binds”.
For B1, the binding entry is “binds”.
The value for B2 was “binds”; that for B3 was “binds”.
